# Measurements published in the supplement of paper PMC8728848.
# The other results are listed elsewhere or left out.
# B1: Aap lectin (Staphylococcus epidermidis) (protein)
# chain: VNLNYSSPFMSLLSMPADSSSNNTKNTIDIPPTTVKGRDNYDFYGRVDIESNPTDLNATNLTRYNYGQPPGTTTAGAVQFKNQVSFDKDFDFNIRVANNRQSNTTGADGWGFMFSKKDGDDFLKNGGILREKGTPSAAGFRIDTGYYNNDPLDKIQKQAGQGYRGYGTFVKNDSQGNTSKVGSGTPSTDFLNYADNTTNDLDGKFHGQKLNNVNLKYNASNQTFTATYAGKTWTATLSELGLSPTDSYNFLVTSS
# How the values were obtained:
# Test in all cases: glycan array binding signal (z-score within array); higher = stronger binding
# Settings in all cases: glycan notation: IUPAC condensed, linker removed
# [1] = target: Fuc(a1-2)Gal(b1-4)[Fuc(a1-3)]GlcNAc(b1-2)Man(a1-3)[Fuc(a1-2)Gal(b1-4)[Fuc(a1-3)]GlcNAc(b1-2)Man(a1-6)]Man(b1-4)GlcNAc(b1-4)[Fuc(a1-6)]GlcNAc
# Procedure, shortened: (§1)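 The Consortium for Functional Glycomics database supplied 3228 glycan arrays, of which those lacking an available protein sequence were dropped. The binding signal, a within-array Z-score, was averaged across arrays of the same protein sequence and across linkers. Negative scores can be read as non-binding.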
# [2] = target: Fuc(a1-2)Gal(b1-4)[Fuc(a1-3)]GlcNAc(b1-2)[Fuc(a1-2)Gal(b1-4)[Fuc(a1-3)]GlcNAc(b1-4)]Man(a1-3)[Fuc(a1-2)Gal(b1-4)[Fuc(a1-3)]GlcNAc(b1-2)Man(a1-6)]Man(b1-4)GlcNAc(b1-4)GlcNAc
# Procedure, shortened: as §1
# [3] = target: Fuc(a1-2)Gal(b1-4)[Fuc(a1-3)]GlcNAc(b1-3)Gal(b1-4)[Fuc(a1-3)]GlcNAc
# Procedure, shortened: as §1
# [4] = target: Fuc(a1-2)Gal(b1-4)[Fuc(a1-3)]GlcNAc(b1-3)Gal(b1-4)[Fuc(a1-3)]GlcNAc(b1-3)Gal(b1-4)[Fuc(a1-3)]GlcNAc
# Procedure, shortened: as §1
# [5] = target: Fuc(a1-2)Gal(b1-4)[Fuc(a1-3)]GlcNAc(b1-3)GalNAc
# Procedure, shortened: as §1
# [6] = target: Fuc(a1-2)Gal(b1-4)[Fuc(a1-3)]GlcNAc(b1-3)[Neu5Ac(a2-6)Gal(b1-4)GlcNAc(b1-6)]Gal(b1-4)Glc
# Procedure, shortened: as §1
# [7] = target: Fuc(a1-2)Gal3S(b1-4)GlcNAc
# Procedure, shortened: as §1
# [8] = target: Fuc(a1-2)Gal6S(b1-3)GlcNAc
# Procedure, shortened: as §1
# [9] = target: Fuc(a1-2)Gal6S(b1-3)GlcNAc6S
# Procedure, shortened: as §1
# Fuc(a1-2)Gal6S(b1-4)Glc = target: Fuc(a1-2)Gal6S(b1-4)Glc
# Procedure, shortened: as §1
# [10] = target: Fuc(a1-2)Gal6S(b1-4)Glc6S
# Procedure, shortened: as §1
# Fuc(a1-2)[Gal(a1-3)]Gal = target: Fuc(a1-2)[Gal(a1-3)]Gal
# Procedure, shortened: as §1
# [11] = target: Fuc(a1-2)[Gal(a1-3)]Gal(b1-3)GalNAc
# Procedure, shortened: as §1
# [12] = target: Fuc(a1-2)[Gal(a1-3)]Gal(b1-3)GalNAc(b1-3)Gal(a1-4)Gal(b1-4)Glc
# Procedure, shortened: as §1
# [13] = target: Fuc(a1-2)[Gal(a1-3)]Gal(b1-3)GlcNAc
# Procedure, shortened: as §1
# [14] = target: Fuc(a1-2)[Gal(a1-3)]Gal(b1-3)GlcNAc(b1-2)Man(a1-3)[Fuc(a1-2)[Gal(a1-3)]Gal(b1-3)GlcNAc(b1-2)Man(a1-6)]Man(b1-4)GlcNAc(b1-4)GlcNAc
# Procedure, shortened: as §1
# [15] = target: Fuc(a1-2)[Gal(a1-3)]Gal(b1-3)GlcNAc(b1-2)Man(a1-3)[Fuc(a1-2)[Gal(a1-3)]Gal(b1-3)GlcNAc(b1-2)Man(a1-6)]Man(b1-4)GlcNAc(b1-4)[Fuc(a1-6)]GlcNAc
# Procedure, shortened: as §1
# [16] = target: Fuc(a1-2)[Gal(a1-3)]Gal(b1-3)GlcNAc(b1-3)GalNAc
# Procedure, shortened: as §1
# [17] = target: Fuc(a1-2)[Gal(a1-3)]Gal(b1-3)GlcNAc(b1-6)GalNAc
# Procedure, shortened: as §1
# [18] = target: Fuc(a1-2)[Gal(a1-3)]Gal(b1-4)Glc
# Procedure, shortened: as §1
# [19] = target: Fuc(a1-2)[Gal(a1-3)]Gal(b1-4)GlcNAc
# Procedure, shortened: as §1
# [20] = target: Fuc(a1-2)[Gal(a1-3)]Gal(b1-4)GlcNAc(b1-2)Man
# Procedure, shortened: as §1
# [21] = target: Fuc(a1-2)[Gal(a1-3)]Gal(b1-4)GlcNAc(b1-2)Man(a1-3)[Fuc(a1-2)[Gal(a1-3)]Gal(b1-4)GlcNAc(b1-2)Man(a1-6)]Man(b1-4)GlcNAc(b1-4)GlcNAc
# Procedure, shortened: as §1
# [22] = target: Fuc(a1-2)[Gal(a1-3)]Gal(b1-4)GlcNAc(b1-2)Man(a1-3)[Fuc(a1-2)[Gal(a1-3)]Gal(b1-4)GlcNAc(b1-2)Man(a1-6)]Man(b1-4)GlcNAc(b1-4)[Fuc(a1-6)]GlcNAc
# Procedure, shortened: as §1
# [23] = target: Fuc(a1-2)[Gal(a1-3)]Gal(b1-4)GlcNAc(b1-3)GalNAc
# Procedure, shortened: as §1
# [24] = target: Fuc(a1-2)[Gal(a1-3)]Gal(b1-4)GlcNAc(b1-3)[Fuc(a1-2)[Gal(a1-3)]Gal(b1-4)GlcNAc(b1-6)]GalNAc
# Procedure, shortened: as §1
# [25] = target: Fuc(a1-2)[Gal(a1-3)]Gal(b1-4)GlcNAc(b1-6)GalNAc
# Procedure, shortened: as §1
# [26] = target: Fuc(a1-2)[Gal(a1-3)]Gal(b1-4)[Fuc(a1-3)]Glc
# Procedure, shortened: as §1
# [27] = target: Fuc(a1-2)[Gal(a1-3)]Gal(b1-4)[Fuc(a1-3)]GlcNAc
# Procedure, shortened: as §1
# [28] = target: Fuc(a1-2)[Gal(a1-3)]Gal(b1-4)[Fuc(a1-3)]GlcNAc(b1-3)GalNAc
# Procedure, shortened: as §1
# [29] = target: Fuc(a1-2)[Gal(a1-4)]Gal(b1-4)GlcNAc
# Procedure, shortened: as §1
# [30] = target: Fuc(a1-2)[GalNAc(a1-3)]Gal
# Procedure, shortened: as §1
# [31] = target: Fuc(a1-2)[GalNAc(a1-3)]Gal(b1-3)GalNAc(a1-3)[Fuc(a1-2)]Gal(b1-4)GlcNAc
# Procedure, shortened: as §1
# [32] = target: Fuc(a1-2)[GalNAc(a1-3)]Gal(b1-3)GalNAc(b1-3)Gal(a1-4)Gal(b1-4)Glc
# Procedure, shortened: as §1
# [33] = target: Fuc(a1-2)[GalNAc(a1-3)]Gal(b1-3)GlcNAc
# Procedure, shortened: as §1
# [34] = target: Fuc(a1-2)[GalNAc(a1-3)]Gal(b1-3)GlcNAc(b1-2)Man(a1-3)[Fuc(a1-2)[GalNAc(a1-3)]Gal(b1-3)GlcNAc(b1-2)Man(a1-6)]Man(b1-4)GlcNAc(b1-4)GlcNAc
# Procedure, shortened: as §1
# [35] = target: Fuc(a1-2)[GalNAc(a1-3)]Gal(b1-3)GlcNAc(b1-2)Man(a1-3)[Fuc(a1-2)[GalNAc(a1-3)]Gal(b1-3)GlcNAc(b1-2)Man(a1-6)]Man(b1-4)GlcNAc(b1-4)[Fuc(a1-6)]GlcNAc
# Procedure, shortened: as §1
# [36] = target: Fuc(a1-2)[GalNAc(a1-3)]Gal(b1-3)GlcNAc(b1-3)GalNAc
# Procedure, shortened: as §1
binder,measurement,setting,value
B1,glycan array binding signal (z-score),[1],-0.688
same,glycan array binding signal (z-score),[2],-0.784
same,glycan array binding signal (z-score),[3],-0.404
same,glycan array binding signal (z-score),[4],-0.534
same,glycan array binding signal (z-score),[5],0.934
same,glycan array binding signal (z-score),[6],-0.585
same,glycan array binding signal (z-score),[7],-0.887
same,glycan array binding signal (z-score),[8],0.089
same,glycan array binding signal (z-score),[9],0.923
same,glycan array binding signal (z-score),Fuc(a1-2)Gal6S(b1-4)Glc,-0.572
same,glycan array binding signal (z-score),[10],0.261
same,glycan array binding signal (z-score),Fuc(a1-2)[Gal(a1-3)]Gal,0.96
same,glycan array binding signal (z-score),[11],0.652
same,glycan array binding signal (z-score),[12],-0.514
same,glycan array binding signal (z-score),[13],-0.695
same,glycan array binding signal (z-score),[14],-0.525
same,glycan array binding signal (z-score),[15],3.02
same,glycan array binding signal (z-score),[16],0.082
same,glycan array binding signal (z-score),[17],1.45
same,glycan array binding signal (z-score),[18],1.2
same,glycan array binding signal (z-score),[19],3.04
same,glycan array binding signal (z-score),[20],-0.838
same,glycan array binding signal (z-score),[21],0.077
same,glycan array binding signal (z-score),[22],1.01
same,glycan array binding signal (z-score),[23],0.329
same,glycan array binding signal (z-score),[24],2.98
same,glycan array binding signal (z-score),[25],-0.267
same,glycan array binding signal (z-score),[26],-0.864
same,glycan array binding signal (z-score),[27],0.74
same,glycan array binding signal (z-score),[28],0.37
same,glycan array binding signal (z-score),[29],-0.34
same,glycan array binding signal (z-score),[30],-0.692
same,glycan array binding signal (z-score),[31],0.928
same,glycan array binding signal (z-score),[32],-0.573
same,glycan array binding signal (z-score),[33],-0.846
same,glycan array binding signal (z-score),[34],-0.562
same,glycan array binding signal (z-score),[35],-0.893
same,glycan array binding signal (z-score),[36],-0.395

# Exported as tab-separated lines: part of the list above.
binder	measurement	setting	value
B1	glycan array binding signal (z-score)	[3]	-0.404
same	glycan array binding signal (z-score)	[5]	0.934
same	glycan array binding signal (z-score)	[10]	0.261
same	glycan array binding signal (z-score)	[12]	-0.514
same	glycan array binding signal (z-score)	[17]	1.45
same	glycan array binding signal (z-score)	[18]	1.2
same	glycan array binding signal (z-score)	[23]	0.329
same	glycan array binding signal (z-score)	[27]	0.74
same	glycan array binding signal (z-score)	[28]	0.37
same	glycan array binding signal (z-score)	[29]	-0.34
same	glycan array binding signal (z-score)	[32]	-0.573
same	glycan array binding signal (z-score)	[35]	-0.893
